Data on eight molecules can be found in patent US20240352105A1, “COMPOSITIONS AND METHODS FOR NEUTRALIZING ANTIGENS” (PACAGEN, INC, priority 2023, published 2024).

The chains behind the UniProt entries cited, without tags or fusion partners. Residues count along the entry.
UniProt O18873, residues 19-174: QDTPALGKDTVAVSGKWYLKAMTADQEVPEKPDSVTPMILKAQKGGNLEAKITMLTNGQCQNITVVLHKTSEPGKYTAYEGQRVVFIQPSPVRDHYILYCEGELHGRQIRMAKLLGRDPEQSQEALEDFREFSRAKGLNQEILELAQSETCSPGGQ

Sequences and labels used below:
T1: recombinant His-tagged Fel D1 (cat) (UniProt P30438+P30440)
T1 sequence (looked up) 1: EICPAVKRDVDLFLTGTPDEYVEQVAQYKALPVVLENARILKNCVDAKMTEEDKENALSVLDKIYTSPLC
T1 sequence (looked up) 2: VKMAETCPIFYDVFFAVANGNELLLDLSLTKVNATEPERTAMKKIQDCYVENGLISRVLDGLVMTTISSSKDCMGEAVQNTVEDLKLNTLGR

B1: SDAB22112-1-B6-B05 (VHH)
VHH: QLQLVESGGGLVQPGGSLRLSCAASRSIFSSYVMAWYRRAPGKKRELVASIANVGSNTDYASFAKGRFTISRDDDKSRDNDKITVYLQMNSLNPEDTAVYYCNAWLGAGSDYWGQGTQVTVSS
notes: anti-Can f1 alpaca VHH
B2: SDAB22112-2-B06 (VHH)
VHH: QVQLVESGGGLVQPGGSLRLSCAASGFTFRLAAMGWYRQAPEKEREWVASITGPGTDTNYADSVKGRFTVSRDNAKNTVYLQMNSLKPEDTAVYYCRGMGYWGKGTLVTVSS
notes: anti-Can f1 alpaca VHH
B3: SDAB22112-1-C9 (VHH)
VHH: QLQLVESGGGLVQPGGSLRLSCVGSGFTFSLASMGWYRQAPGKEREWVASISSLDASTNYADSVKGRFTISRDNAKRMVYLQMNNLKSEDTAVYYCKAMNYWGKGTQVTVSS
notes: anti-Can f1 alpaca VHH
B4: SDAB22112-1-C10 (VHH)
VHH: QLQLVESGGGLVQPGGSLRLSCAASGFTFSSYSMSWYRQAPGKERELVATIDTDGRTNYADSVKGRFTISRDNAKNSVYLQMNSLKPEDTAVYYCNRRQLGVDYWGQGTQVTVSS
notes: anti-Can f1 alpaca VHH
B5: SDAB22112-2-D08 (VHH)
VHH: QVKLEESGGGLVQAGGSLRLSCVASGRTFSRWHTGWYRQAPGREREFVATLRASGGDTYYADSVKGRFTISRDNAKNTVYLQMNSLKPEDTAVYYCNVWANWGAPPSDFSSWGQGTQVTVSS
notes: anti-Can f1 alpaca VHH
B6: SDAB22112-1-D12 (VHH)
VHH: AVQLVDSGGGLVQAGGSLRLACAASGRTFDTYAVGWFRQAPGKERDVVASITWTSGSTWYADFVKGRFTISKDNAKNTVYLQMNNLSPEDTAVYYCGARNQIYTRWDSWGQGTQVTVSS
notes: anti-Can f1 alpaca VHH
B7: SDAB22112-1-D12-3 (VHH)
VHH: QVQLVESGGGLVQPGGSLRLSCAASGFTFSNYGMSWVRQAPGKGLEWVSDVNSSGSRRFYVDSVKGRFTISRDNAKNTVFLQMNSLKPEDSAVYYCVKLAEAGTLIHVGSWGQGTRVTVSS
notes: anti-Can f1 alpaca VHH
B8: 370 VH + 378 VL (antibody, V domains shown)
VH: EVQLVESGGGLAQPGGSLRLSCAASGFTFNNYAMTWVRQAPGKGLDWVSAISDSGRSTFSADSVKGRFTISRDNSKNTLYLQMDSLRAEDTALYYCAKHRNWNYPVFDYWGQGTLVTVSS
VL: DIQLTQSPSFLSASVGDRVTITCWASQGISSYLAWYQQKPGKAPKLLIYSASTLQSGVPSRFSGSGSGTEFTLTISSLQPEDFATYYCQQLNSYPFTFGPGTKVDIK

Results are given in words; binding and its absence hold for the method and conditions named. Some results given as binding are weak or reduced against the parent protein; the word gives no strength. For some assays here: Sequences can lack the tags named with a protein.

One test concerns the target recombinant His-tagged Can f1 (dog (Canis familiaris)) (UniProt O18873). The test can be described thus: ELISA, antigen coated. Background: An ELISA detects its analyte on a solid surface through an enzyme-linked reagent.
For B1, the binding result was “binds”.

With B2, the binding entry is on record as “binds”.

Turning to B3, the binding result is listed as “binds”.

Take B4: the binding result is “binds”.

In the case of B5, the binding entry was “binds”.

Consider B6, for which the binding result is listed as “binds”.

For the molecule B7, the binding entry is “binds”.

In another test the target is T1, recombinant His-tagged Fel D1 (cat). The test can be described thus: ELISA with known Fel D1 antibodies.
As to B8, the binding entry was “binds”.
